Experimental data: PubChem BioAssay AID1159578 (Peter MacCallum Cancer Centre, 2015)
Here is one part, drawn at random, of about 18,000 reagents tested. About 1,030 of all reagents (5.7%) were called active. 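Inactive calls also include pools with fewer than 3300 nuclei, whose migration was not assessed.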 Raw values vary from plate to plate and are shown uncorrected. Further read-outs or replicates are left out here.

Screen: 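siRNA pools altering how lymphatic endothelial cells close a scratch wound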 (primary screen)
System: human lymphatic endothelial cells
Reagents: siRNA pool against human genes, 40 nM
Time to read-out: 48 h after transfection
Detection: 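Cells stained with dye and imaged after a scratch; covered wound area and nuclei counted, duplicates averaged, migration set against mock wells and turned into a robust z-score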
Reading the numbers: migration robust z-score: higher = faster migration into the scratch; nuclei per well: higher = more cells in the well
Active means: 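Pools averaging fewer than 3300 nuclei are never called; remaining pools count as changed when migration robust z lies outside -2 to 2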
Calls: active = migration changed; inactive = no migration change, or too few cells

gene symbol | migration robust z-score | nuclei per well, duplicate mean | Call
ENTPD4 | 1.82 | 5842 | inactive
NTF4 | 0.18 | 5069 | inactive
WRNIP1 | 0.8 | 6822 | inactive
IRAK1 | -0.05 | 6502 | inactive
MTX1 | 0.2 | 5252 | inactive
SOX15 | -0.11 | 5104 | inactive
PIAS3 | 1.14 | 4972 | inactive
CAPN3 | 0.26 | 5264 | inactive
DSG1 | -2.91 | 3662 | active
TMEM105 | 0.02 | 4011 | inactive
CLDN4 | -0.7 | 5631 | inactive
ZNF99 | 0.09 | 5858 | inactive
DISP1 | -0.68 | 5352 | inactive
RYBP | -1.34 | 5814 | inactive
ARMC2 | 1.29 | 5268 | inactive
CLU | 1.16 | 4560 | inactive
JDP2 | 0.92 | 5897 | inactive
KLHL2 | -0.55 | 5096 | inactive
FEV | -0.55 | 5004 | inactive
CIMIP4 | 0.11 | 7123 | inactive
MAPRE1 | 1.1 | 6144 | inactive
AANAT | -0.86 | 5410 | inactive
ALCAM | -2.02 | 4882 | active
SPACDR | -0.67 | 6076 | inactive
NKPD1 | -0.48 | 5960 | inactive
MCM4 | -0.52 | 5375 | inactive
PHAX | -0.27 | 5942 | inactive
ZFAND1 | 0.3 | 4745 | inactive
ZNF22-AS1 | 0.71 | 4728 | inactive
FGF6 | -0.5 | 4348 | inactive
GATA2 | 0.08 | 6262 | inactive
RAB2B | 0.83 | 5925 | inactive
ARHGAP30 | -0.19 | 7322 | inactive
PDXK | -3.42 | 3408 | active
LPXN | 0.32 | 6402 | inactive
EHHADH | -1.12 | 5924 | inactive
SNRPG | -0.78 | 5726 | inactive
SCAMP3 | 0.3 | 4898 | inactive
KIAA0232 | -1.62 | 5078 | inactive
ADAM9 | 0.83 | 6762 | inactive
S100A5 | 1.43 | 6226 | inactive
ZNF234 | 1.13 | 6600 | inactive
UBA3 | 0.57 | 5098 | inactive
PTGES2 | 0.29 | 6514 | inactive
THSD7B | 0.54 | 6743 | inactive
MAP3K4 | -0.68 | 5792 | inactive
PCDHA10 | -1.12 | 5186 | inactive
CRISPLD2 | 0.28 | 5292 | inactive
MTARC2 | -0.56 | 4419 | inactive
ABRAXAS2 | 0.4 | 7192 | inactive
TGIF1 | 0.24 | 6690 | inactive
DTNBP1 | -1.13 | 6591 | inactive
NDUFB5 | -0.1 | 4535 | inactive
FUCA2 | 0.54 | 4176 | inactive
SMARCD3 | -0.83 | 3997 | inactive
TUBGCP4 | 0.71 | 5237 | inactive
ZNF391 | 0.44 | 6450 | inactive

8 entries already listed, ordered by “nuclei per well, duplicate mean”, lowest first:
gene symbol | migration robust z-score | nuclei per well, duplicate mean | Call
MTARC2 | -0.56 | 4419 | inactive
NDUFB5 | -0.1 | 4535 | inactive
PCDHA10 | -1.12 | 5186 | inactive
CRISPLD2 | 0.28 | 5292 | inactive
MAP3K4 | -0.68 | 5792 | inactive
DTNBP1 | -1.13 | 6591 | inactive
TGIF1 | 0.24 | 6690 | inactive
ABRAXAS2 | 0.4 | 7192 | inactive
